# Measurements reported in PubChem BioAssay AID602196 (INSERM, 2012)
# Purpose: 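Modifiers of cisplatin sensitivity in A549 cells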
# Cells: human A549 lung cancer cells
# Reagent: siRNA pair against human genes
# Duration: 48 h transfection before cisplatin; time from cisplatin to read-out not stated
# Challenge: cisplatin at a dose killing half of control-siRNA cells; exact dose and duration not given
# Detection: 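Cisplatin cell death as a shift from the 50% death seen with control siRNA; siRNAs toxic or growth-blocking alone scored 0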
# Reading the numbers: two-siRNA summed score (-2 to +2): higher = both siRNAs protect from cisplatin killing; -2 means both sensitise; mean protection from cisplatin (shift in death) and protection from cisplatin (shift in death), siRNA C and protection from cisplatin (shift in death), siRNA D: higher = protection from cisplatin killing
# Call rule: 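Each siRNA scores 0 if harmful alone by LDH or WST-1, otherwise +1 if it reduces and -1 if it increases cisplatin killing; a gene is active when both siRNAs agree (sum +2 or -2)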
# Calls: active = both siRNAs shift cisplatin killing the same way; inactive = no consistent shift, or siRNA harmful alone
# The deposit covers about 23,000 reagents; shown is an unselected part. 455 of them (2%) were called active. 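Active includes both protection and sensitisation; some change values fall well beyond the stated -50 to +50 range.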 The record does not give: the amount of reagent.
target gene,two-siRNA summed score (-2 to +2),mean protection from cisplatin (shift in death) (%),"protection from cisplatin (shift in death), siRNA C (%)","protection from cisplatin (shift in death), siRNA D (%)",Outcome
AAR2 (GeneID 25980),-1,-27.6,-32.1,-23.2,inactive
NUDT5 (GeneID 11164),0,-2.8,0.8,-6.4,inactive
CYP46A1 (GeneID 10858),0,-8.1,-9.5,-6.7,inactive
LOC442387,0,4,5.1,2.9,inactive
PCDHA2 (GeneID 56146),0,-0.7,2.3,-3.7,inactive
CLIC6 (GeneID 54102),0,-3.4,1.5,-8.3,inactive
LOC401052 (retired record) (GeneID 401052),0,-3.1,-13.2,7.1,inactive
TPD52 (GeneID 7163),0,4,16.2,-8.1,inactive
EPHA8 (GeneID 2046),1,-7.9,21,-36.8,inactive
JADE1 (GeneID 79960),0,12,15.8,8.3,inactive
HSP90AA2P (GeneID 3324),0,13.1,11.6,14.6,inactive
DGKA (GeneID 1606),1,11.2,10.9,11.4,inactive
ACSM1 (GeneID 116285),0,-1.1,0.6,-2.7,inactive
SBNO2 (GeneID 22904),0,6.6,6.9,6.3,inactive
CRYBB2 (GeneID 1415),0,-6.1,-11.5,-0.7,inactive
ACTL7B (GeneID 10880),1,10.4,-9,29.8,inactive
DDX46 (GeneID 9879),-1,-2.6,7,-12.1,inactive
LOC402538,0,11.5,16.7,6.4,inactive
IPCEF1 (GeneID 26034),0,7.2,-3.1,17.5,inactive
PGAP4 (GeneID 84302),0,5.7,11.9,-0.5,inactive
COPE (GeneID 11316),0,0.1,-8.2,8.3,inactive
LOC341511,0,26.3,19.9,32.8,inactive
ARPC3 (GeneID 10094),1,10,0.9,19.2,inactive
LOC441493 (retired record) (GeneID 441493),0,-1.8,5.1,-8.8,inactive
GATM (GeneID 2628),-1,10,34.2,-14.2,inactive
LOC400097,0,5,5.2,4.9,inactive
OR10A6 (GeneID 390093),1,5.6,-2.6,13.9,inactive
TJAP1 (GeneID 93643),0,-10.6,-7.7,-13.4,inactive
ZNF696 (GeneID 79943),0,1,9.9,-8,inactive
ZNF44 (GeneID 51710),0,-5.1,-8.7,-1.6,inactive
RHPN1-AS1 (GeneID 78998),0,-9.2,-4.8,-13.6,inactive
ASMTL-AS1 (GeneID 80161),0,6.8,8.7,4.9,inactive
ZDHHC8 (GeneID 29801),0,3.6,6.4,0.7,inactive
OTOGL (GeneID 283310),0,2.3,15.1,-10.6,inactive
LOC139587,0,15.7,11.2,20.3,inactive
PAN2 (GeneID 9924),0,-1.4,-8.3,5.4,inactive
LOC441001,0,12.8,20.7,4.9,inactive
TNFSF10 (GeneID 8743),0,-7.3,18.3,-33,inactive
LOC440765,0,5.3,3.3,7.2,inactive
LTAP1 (GeneID 25912),1,10,3.3,16.8,inactive
FAHD2A (GeneID 51011),0,8.4,13.1,3.7,inactive
OR5A2 (GeneID 219981),0,4,9.9,-1.8,inactive
LOC441035 (retired record) (GeneID 441035),0,7.9,2.8,12.9,inactive
PTPRM (GeneID 5797),0,-0.7,17.9,-19.2,inactive
PHC3 (GeneID 80012),0,3.2,7,-0.6,inactive
PAX1 (GeneID 5075),0,-13,-0.1,-25.8,inactive
THAP9 (GeneID 79725),0,3.2,-1.5,7.9,inactive
LOC388019,0,7.3,11,3.5,inactive
MC2R (GeneID 4158),0,-11.7,-24.5,1,inactive
CAV3 (GeneID 859),-1,-13.6,-10.4,-16.9,inactive
LOC440276,1,11.5,13.5,9.6,inactive
FAM106B (GeneID 100996259),0,7.8,9.5,6,inactive
ARMC5 (GeneID 79798),0,1.3,7,-4.5,inactive
METTL2B (GeneID 55798),0,11.5,14.9,8.2,inactive
DKFZP586K1520 (retired record) (GeneID 26106),1,8.1,16.2,-0.1,inactive
LOC400662 (retired record) (GeneID 400662),0,2.2,-9,13.3,inactive
CDH18 (GeneID 1016),-1,-10.4,0.7,-21.6,inactive

Already shown: entries from further up.
target gene,two-siRNA summed score (-2 to +2),mean protection from cisplatin (shift in death) (%),"protection from cisplatin (shift in death), siRNA C (%)","protection from cisplatin (shift in death), siRNA D (%)",Outcome
TNFSF10 (GeneID 8743),0,-7.3,18.3,-33,inactive
LOC440765,0,5.3,3.3,7.2,inactive
LTAP1 (GeneID 25912),1,10,3.3,16.8,inactive
FAHD2A (GeneID 51011),0,8.4,13.1,3.7,inactive
OR5A2 (GeneID 219981),0,4,9.9,-1.8,inactive
LOC441035 (retired record) (GeneID 441035),0,7.9,2.8,12.9,inactive
PTPRM (GeneID 5797),0,-0.7,17.9,-19.2,inactive
PHC3 (GeneID 80012),0,3.2,7,-0.6,inactive
